Measurements: paper PMC8384837
Numbering of substitutions follows the chain as printed. Some of the results follow. For some assays here: At the low end of the ranking the order means little.

Experiments:
Settings in all cases: yeast three-hybrid, YBZ-1, SC-Leu-His + 0.5 mM 3-AT, 4 days
[1] = target: T1, PUM1 PUF domain R4-RCG N971R + H972C + Q975G (Homo sapiens) (UniProt Q14671)
T1 sequence: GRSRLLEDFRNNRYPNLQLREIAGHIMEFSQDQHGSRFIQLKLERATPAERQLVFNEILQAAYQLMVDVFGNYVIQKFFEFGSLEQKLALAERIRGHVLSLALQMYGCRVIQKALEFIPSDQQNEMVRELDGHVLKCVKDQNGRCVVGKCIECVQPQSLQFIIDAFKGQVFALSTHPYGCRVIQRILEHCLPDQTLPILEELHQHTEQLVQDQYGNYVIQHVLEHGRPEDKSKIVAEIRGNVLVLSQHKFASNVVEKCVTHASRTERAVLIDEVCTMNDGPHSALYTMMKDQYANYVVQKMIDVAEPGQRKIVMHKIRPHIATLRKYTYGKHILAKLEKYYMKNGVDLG

[2] = target: T2, PUM1 PUF domain R4-RGG N971R + H972G + Q975G (Homo sapiens) (UniProt Q14671)
T2 sequence: T1 sequence with C145G

[3] = target: T3, PUM1 PUF domain R4-RGY N971R + H972G + Q975Y (UniProt Q14671)
T3 sequence: T1 sequence with C145G, G148Y

[4] = target: T4, PUM1 PUF domain R4-RIY N971R + H972I + Q975Y (UniProt Q14671)
T4 sequence: T1 sequence with C145I, G148Y

[5] = target: T5, PUM1 PUF domain R4-RLF N971R + H972L + Q975F (UniProt Q14671)
T5 sequence: T1 sequence with C145L, G148F

[6] = target: T6, PUM1 PUF domain R4-RMG N971R + H972M + Q975G (Homo sapiens) (UniProt Q14671)
T6 sequence: T1 sequence with C145M

[7] = target: T7, PUM1 PUF domain R4-RMI N971R + H972M + Q975I (Homo sapiens) (UniProt Q14671)
T7 sequence: T1 sequence with C145M, G148I

[8] = target: T8, PUM1 PUF domain R4-RMR N971R + H972M + Q975R (UniProt Q14671)
T8 sequence: T1 sequence with C145M, G148R

[9] = target: T9, PUM1 PUF domain R4-RMT N971R + H972M + Q975T (UniProt Q14671)
T9 sequence: T1 sequence with C145M, G148T

[10] = target: T10, PUM1 PUF domain R4-RVY N971R + H972V + Q975Y (UniProt Q14671)
T10 sequence: T1 sequence with C145V, G148Y

[11] = target: T11, PUM1 PUF domain R4-SIG N971S + H972I + Q975G (Homo sapiens) (UniProt Q14671)
T11 sequence: T1 sequence with R144S, C145I

[12] = target: T12, PUM1 PUF domain R4-SLS N971S + H972L + Q975S (Homo sapiens) (UniProt Q14671)
T12 sequence: T1 sequence with R144S, C145L, G148S

[13] = target: T13, PUM1 PUF domain R4-SLY N971S + H972L + Q975Y (UniProt Q14671)
T13 sequence: T1 sequence with R144S, C145L, G148Y

[14] = target: T14, PUM1 PUF domain R4-SML N971S + H972M + Q975L (Homo sapiens) (UniProt Q14671)
T14 sequence: T1 sequence with R144S, C145M, G148L

[15] = target: T15, PUM1 PUF domain R4-SMR N971S + H972M + Q975R (Homo sapiens) (UniProt Q14671)
T15 sequence: T1 sequence with R144S, C145M, G148R

[16] = target: T16, PUM1 PUF domain R4-SNF N971S + H972N + Q975F (Homo sapiens) (UniProt Q14671)
T16 sequence: T1 sequence with R144S, C145N, G148F

[17] = target: T17, PUM1 PUF domain R4-SPT N971S + H972P + Q975T (Homo sapiens) (UniProt Q14671)
T17 sequence: T1 sequence with R144S, C145P, G148T

[18] = target: T18, PUM1 PUF domain R4-SQR N971S + H972Q + Q975R (Homo sapiens) (UniProt Q14671)
T18 sequence: T1 sequence with R144S, C145Q, G148R

[19] = target: T19, PUM1 PUF domain R4-SRC N971S + H972R + Q975C (Homo sapiens) (UniProt Q14671)
T19 sequence: T1 sequence with R144S, C145R, G148C

[20] = target: T20, PUM1 PUF domain R4-SRL N971S + H972R + Q975L (Homo sapiens) (UniProt Q14671)
T20 sequence: T1 sequence with R144S, C145R, G148L

[21] = target: T21, PUM1 PUF domain R4-SRR N971S + H972R + Q975R (Homo sapiens) (UniProt Q14671)
T21 sequence: T1 sequence with R144S, C145R, G148R

[22] = target: T22, PUM1 PUF domain R4-TRA N971T + H972R + Q975A (Homo sapiens) (UniProt Q14671)
T22 sequence: T1 sequence with R144T, C145R, G148A

[23] = target: T23, PUM1 PUF domain R4-TRT N971T + H972R + Q975T (Homo sapiens) (UniProt Q14671)
T23 sequence: T1 sequence with R144T, C145R, G148T

[24] = target: T24, PUM1 PUF domain R4-VGI N971V + H972G + Q975I (Homo sapiens) (UniProt Q14671)
T24 sequence: T1 sequence with R144V, C145G, G148I

[25] = target: T25, PUM1 PUF domain R4-VGL N971V + H972G + Q975L (Homo sapiens) (UniProt Q14671)
T25 sequence: T1 sequence with R144V, C145G, G148L

[26] = target: T26, PUM1 PUF domain R4-VGY N971V + H972G + Q975Y (UniProt Q14671)
T26 sequence: T1 sequence with R144V, C145G, G148Y

[27] = target: T27, PUM1 PUF domain R4-VLY N971V + H972L + Q975Y (UniProt Q14671)
T27 sequence: T1 sequence with R144V, C145L, G148Y

[28] = target: T28, PUM1 PUF domain R4-VRG N971V + H972R + Q975G (Homo sapiens) (UniProt Q14671)
T28 sequence: T1 sequence with R144V, C145R

[29] = target: T29, PUM1 PUF domain R4-VRT N971V + H972R + Q975T (Homo sapiens) (UniProt Q14671)
T29 sequence: T1 sequence with R144V, C145R, G148T

[30] = target: T30, PUM1 PUF domain R4-VSI N971V + H972S + Q975I (Homo sapiens) (UniProt Q14671)
T30 sequence: T1 sequence with R144V, C145S, G148I

[31] = target: T31, PUM1 PUF domain R4-VSL N971V + H972S + Q975L (Homo sapiens) (UniProt Q14671)
T31 sequence: T1 sequence with R144V, C145S, G148L

[32] = target: T32, PUM1 PUF domain R4-YRL N971Y + H972R + Q975L (Homo sapiens) (UniProt Q14671)
T32 sequence: T1 sequence with R144Y, C145R, G148L

## GGCUAGAACUAGUGGAUCCCCCGGCGCCCGGCGGCUCGAGCCCGGGUAAGUGUAUAUAGUCUGCAUGCCGCCGGGCGCCAUGCCUGCAGGUCGACUCUAGAAAACAUG
[1]
  binding signal (log2 enrichment (interaction score)): -1.09
[2]
  binding signal (log2 enrichment (interaction score)): -0.17
[3]
  binding signal (log2 enrichment (interaction score)): < -6.34
[4]
  binding signal (log2 enrichment (interaction score)): < -5.85
[5]
  binding signal (log2 enrichment (interaction score)): < -6.65
[6]
  binding signal (log2 enrichment (interaction score)): -2.84
[7]
  binding signal (log2 enrichment (interaction score)): -4.15
[8]
  binding signal (log2 enrichment (interaction score)): < -7.09
[9]
  binding signal (log2 enrichment (interaction score)): < -5.9
[10]
  binding signal (log2 enrichment (interaction score)): < -6.71
[11]
  binding signal (log2 enrichment (interaction score)): -3.55
[12]
  binding signal (log2 enrichment (interaction score)): -2.75
[13]
  binding signal (log2 enrichment (interaction score)): < -5.9
[14]
  binding signal (log2 enrichment (interaction score)): -0.89
[15]
  binding signal (log2 enrichment (interaction score)): -0.77
[16]
  binding signal (log2 enrichment (interaction score)): 0.63
[17]
  binding signal (log2 enrichment (interaction score)): -4.31
[18]
  binding signal (log2 enrichment (interaction score)): 0.12
[19]
  binding signal (log2 enrichment (interaction score)): 0.58
[20]
  binding signal (log2 enrichment (interaction score)): 0.07
[21]
  binding signal (log2 enrichment (interaction score)): 0.62
[22]
  binding signal (log2 enrichment (interaction score)): 0.13
[23]
  binding signal (log2 enrichment (interaction score)): 0.32
[24]
  binding signal (log2 enrichment (interaction score)): -3.68
[25]
  binding signal (log2 enrichment (interaction score)): -3.31
[26]
  binding signal (log2 enrichment (interaction score)): < -7.27
[27]
  binding signal (log2 enrichment (interaction score)): < -7.72
[28]
  binding signal (log2 enrichment (interaction score)): -1.69
[29]
  binding signal (log2 enrichment (interaction score)): -2.12
[30]
  binding signal (log2 enrichment (interaction score)): -2.88
[31]
  binding signal (log2 enrichment (interaction score)): -4.44
[32]
  binding signal (log2 enrichment (interaction score)): -0.93
